Test results as given in paper PMC8384837.
Residue numbers refer to the chain shown, from its start. The list shows a part of the results. For part of these data: At the low end of the ranking, values are background and their order means little. For part of these data: Construct or isoform of the protein are uncertain.

Key:
Settings in all cases: yeast three-hybrid, YBZ-1, SC-Leu-His + 0.5 mM 3-AT, 4 days
[1] = target: T1, PUM1 PUF domain R1-QFR R2-VFQ R7-NPG S863Q + R864F + Q867R + N899V + Y900F + S1079N + N1080P + E1083G (UniProt Q14671)
T1 sequence: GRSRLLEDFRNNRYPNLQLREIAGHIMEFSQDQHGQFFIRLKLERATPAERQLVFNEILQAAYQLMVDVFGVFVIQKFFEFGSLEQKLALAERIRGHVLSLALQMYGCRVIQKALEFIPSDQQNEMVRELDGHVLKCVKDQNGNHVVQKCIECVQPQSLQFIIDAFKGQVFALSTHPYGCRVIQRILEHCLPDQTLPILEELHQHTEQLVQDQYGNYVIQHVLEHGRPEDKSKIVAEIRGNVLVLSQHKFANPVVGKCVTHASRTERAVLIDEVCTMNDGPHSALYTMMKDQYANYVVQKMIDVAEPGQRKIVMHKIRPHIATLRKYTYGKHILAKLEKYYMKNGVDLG

[2] = target: T2, PUM1 PUF domain R2-VFQ R3-THE R4-TFR N899V + Y900F + C935T + R936H + Q939E + N971T + H972F + Q975R (UniProt Q14671)
T2 sequence: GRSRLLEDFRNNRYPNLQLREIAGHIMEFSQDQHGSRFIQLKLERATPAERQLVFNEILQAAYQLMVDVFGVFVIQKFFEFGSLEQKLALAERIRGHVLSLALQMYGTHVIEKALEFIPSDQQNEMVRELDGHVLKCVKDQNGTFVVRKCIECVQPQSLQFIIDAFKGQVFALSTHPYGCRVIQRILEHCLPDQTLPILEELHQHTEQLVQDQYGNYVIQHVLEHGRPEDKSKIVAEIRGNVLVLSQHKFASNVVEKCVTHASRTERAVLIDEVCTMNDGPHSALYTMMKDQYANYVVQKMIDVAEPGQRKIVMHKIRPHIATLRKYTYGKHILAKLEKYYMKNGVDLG

[3] = target: T3, PUM1 PUF domain R5-PHQ R6-SWD C1007P + R1008H + N1043S + Y1044W + Q1047D (UniProt Q14671)
T3 sequence: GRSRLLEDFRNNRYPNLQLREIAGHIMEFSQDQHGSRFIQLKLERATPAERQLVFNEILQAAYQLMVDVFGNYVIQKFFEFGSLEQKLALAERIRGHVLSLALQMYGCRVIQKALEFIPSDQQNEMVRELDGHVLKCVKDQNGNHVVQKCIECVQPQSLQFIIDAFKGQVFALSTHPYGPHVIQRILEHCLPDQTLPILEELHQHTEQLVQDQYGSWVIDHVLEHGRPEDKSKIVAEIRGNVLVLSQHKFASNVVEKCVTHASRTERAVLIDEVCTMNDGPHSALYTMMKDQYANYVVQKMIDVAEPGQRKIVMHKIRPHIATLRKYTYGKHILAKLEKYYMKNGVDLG

[4] = target: T4, PUM1 PUF domain R7-ASR S1079A + N1080S + E1083R (Homo sapiens) (UniProt Q14671)
T4 sequence: T1 sequence with Q36S, F37R, R40Q, V72N, F73Y, N252A, P253S, G256R

[5] = target: T5, PUM1 PUF domain R7-ATR S1079A + N1080T + E1083R (UniProt Q14671)
T5 sequence: T1 sequence with Q36S, F37R, R40Q, V72N, F73Y, N252A, P253T, G256R

[6] = target: T6, PUM1 PUF domain R7-AVR S1079A + N1080V + E1083R (Homo sapiens) (UniProt Q14671)
T6 sequence: T1 sequence with Q36S, F37R, R40Q, V72N, F73Y, N252A, P253V, G256R

[7] = target: T7, PUM1 PUF domain R7-CSR S1079C + N1080S + E1083R (Homo sapiens) (UniProt Q14671)
T7 sequence: T1 sequence with Q36S, F37R, R40Q, V72N, F73Y, N252C, P253S, G256R

[8] = target: T8, PUM1 PUF domain R7-CTR S1079C + N1080T + E1083R (Homo sapiens) (UniProt Q14671)
T8 sequence: T1 sequence with Q36S, F37R, R40Q, V72N, F73Y, N252C, P253T, G256R

[9] = target: T9, PUM1 PUF domain R7-DHV S1079D + N1080H + E1083V (Homo sapiens) (UniProt Q14671)
T9 sequence: T1 sequence with Q36S, F37R, R40Q, V72N, F73Y, N252D, P253H, G256V

[10] = target: T10, PUM1 PUF domain R7-DNV S1079D + E1083V (UniProt Q14671)
T10 sequence: T3 sequence with P180C, H181R, S216N, W217Y, D220Q, S252D, E256V

[11] = target: T11, PUM1 PUF domain R7-DYV S1079D + N1080Y + E1083V (UniProt Q14671)
T11 sequence: T1 sequence with Q36S, F37R, R40Q, V72N, F73Y, N252D, P253Y, G256V

[12] = target: T12, PUM1 PUF domain R7-EPG S1079E + N1080P + E1083G (Homo sapiens) (UniProt Q14671)
T12 sequence: T1 sequence with Q36S, F37R, R40Q, V72N, F73Y, N252E

[13] = target: T13, PUM1 PUF domain R7-GCD S1079G + N1080C + E1083D (UniProt Q14671)
T13 sequence: T1 sequence with Q36S, F37R, R40Q, V72N, F73Y, N252G, P253C, G256D

[14] = target: T14, PUM1 PUF domain R7-GCG S1079G + N1080C + E1083G (Homo sapiens) (UniProt Q14671)
T14 sequence: T1 sequence with Q36S, F37R, R40Q, V72N, F73Y, N252G, P253C

[15] = target: T15, PUM1 PUF domain R7-GCL S1079G + N1080C + E1083L (Homo sapiens) (UniProt Q14671)
T15 sequence: T1 sequence with Q36S, F37R, R40Q, V72N, F73Y, N252G, P253C, G256L

[16] = target: T16, PUM1 PUF domain R7-GGK S1079G + N1080G + E1083K (Homo sapiens) (UniProt Q14671)
T16 sequence: T1 sequence with Q36S, F37R, R40Q, V72N, F73Y, N252G, P253G, G256K

[17] = target: T17, PUM1 PUF domain R7-GGN S1079G + N1080G + E1083N (UniProt Q14671)
T17 sequence: T1 sequence with Q36S, F37R, R40Q, V72N, F73Y, N252G, P253G, G256N

[18] = target: T18, PUM1 PUF domain R7-GGR S1079G + N1080G + E1083R (Homo sapiens) (UniProt Q14671)
T18 sequence: T1 sequence with Q36S, F37R, R40Q, V72N, F73Y, N252G, P253G, G256R

[19] = target: T19, PUM1 PUF domain R7-GIR S1079G + N1080I + E1083R (Homo sapiens) (UniProt Q14671)
T19 sequence: T1 sequence with Q36S, F37R, R40Q, V72N, F73Y, N252G, P253I, G256R

[20] = target: T20, PUM1 PUF domain R7-GIV S1079G + N1080I + E1083V (UniProt Q14671)
T20 sequence: T1 sequence with Q36S, F37R, R40Q, V72N, F73Y, N252G, P253I, G256V

[21] = target: T21, PUM1 PUF domain R7-GQR S1079G + N1080Q + E1083R (Homo sapiens) (UniProt Q14671)
T21 sequence: T1 sequence with Q36S, F37R, R40Q, V72N, F73Y, N252G, P253Q, G256R

[22] = target: T22, PUM1 PUF domain R7-GRL S1079G + N1080R + E1083L (Homo sapiens) (UniProt Q14671)
T22 sequence: T1 sequence with Q36S, F37R, R40Q, V72N, F73Y, N252G, P253R, G256L

[23] = target: T23, PUM1 PUF domain R7-GRV S1079G + N1080R + E1083V (Homo sapiens) (UniProt Q14671)
T23 sequence: T1 sequence with Q36S, F37R, R40Q, V72N, F73Y, N252G, P253R, G256V

[24] = target: T24, PUM1 PUF domain R7-GSK S1079G + N1080S + E1083K (Homo sapiens) (UniProt Q14671)
T24 sequence: T1 sequence with Q36S, F37R, R40Q, V72N, F73Y, N252G, P253S, G256K

## GGCUAGAACUAGUGGAUCCCCCGGCGCCCGGCGGCUCGAGCCCGGGUAAGUCUAAAUAGUCUGCAUGCCGCCGGGCGCCAUGCCUGCAGGUCGACUCUAGAAAACAUG
[1]
  binding signal (log2 enrichment (interaction score)): < -5.93
[2]
  binding signal (log2 enrichment (interaction score)): -5.59
[3]
  binding signal (log2 enrichment (interaction score)): < -7
[4]
  binding signal (log2 enrichment (interaction score)): -5.06
[5]
  binding signal (log2 enrichment (interaction score)): < -8.73
[6]
  binding signal (log2 enrichment (interaction score)): -3.29
[7]
  binding signal (log2 enrichment (interaction score)): -4.91
[8]
  binding signal (log2 enrichment (interaction score)): -6.35
[9]
  binding signal (log2 enrichment (interaction score)): -4.6
[10]
  binding signal (log2 enrichment (interaction score)): < -8.33
[11]
  binding signal (log2 enrichment (interaction score)): -6.65
[12]
  binding signal (log2 enrichment (interaction score)): -5.84
[13]
  binding signal (log2 enrichment (interaction score)): < -9.24
[14]
  binding signal (log2 enrichment (interaction score)): -6.06
[15]
  binding signal (log2 enrichment (interaction score)): -4.56
[16]
  binding signal (log2 enrichment (interaction score)): -3.65
[17]
  binding signal (log2 enrichment (interaction score)): < -8.23
[18]
  binding signal (log2 enrichment (interaction score)): -3
[19]
  binding signal (log2 enrichment (interaction score)): -2.6
[20]
  binding signal (log2 enrichment (interaction score)): < -9.02
[21]
  binding signal (log2 enrichment (interaction score)): -2.83
[22]
  binding signal (log2 enrichment (interaction score)): -3.79
[23]
  binding signal (log2 enrichment (interaction score)): -2.73
[24]
  binding signal (log2 enrichment (interaction score)): -0.57
